Measurements reported in PubChem BioAssay AID1259327 (Drosophila RNAi Screening Center, 2017).
Here is one part, drawn at random, of about 3,100 deposited reagents. Of all reagents, 378 (12%) were called active. 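Hits include both directions; z-score sign shows ATP rise or fall; raw luminescence values are not plate-normalised.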 The record does not give: the amount of reagent.

Assay: 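Data from controls in screens of zinc and manganese toxicity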
Cell system: Drosophila S2R+ cells
Knock-down reagent: long dsRNA against Drosophila genes
Duration: 5 days (water added on day 4, read one day later)
Challenge: water added as vehicle, no metal, one day before read-out
Measurement: 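Luciferase ATP signal per well, normalised to plate mean, duplicate average converted to z-score across plates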
Direction: ATP z-score: higher = more total ATP than typical wells; ATP luminescence: higher = more total ATP
Rule for the call: 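Called active when the ATP z-score exceeds 1.5 or falls below -1.5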
Meaning of the calls: active = hit: ATP up or down; inactive = no clear ATP change

gene	amplicon	ATP z-score, duplicate mean	ATP luminescence, replicate 1 (RLU)	ATP luminescence, replicate 2 (RLU)	activity call
Or2a (GeneID 31207)	DRSC18690	0.395	7.78e5	7.49e5	inactive
Or2a (GeneID 31207)	DRSC39832	-1.5	3.66e5	3.83e5	inactive
CG15706 (GeneID 36799)	DRSC06577	-0.282	6.23e5	5.65e5	inactive
CG15706 (GeneID 36799)	DRSC39576	-0.706	4.31e5	4.03e5	inactive
ppk8 (GeneID 318213)	DRSC17269	0.0697	9.57e5	8.56e5	inactive
ppk8 (GeneID 318213)	DRSC39772	-1.95	4.26e5	2.53e5	active
CG13743 (GeneID 35911)	DRSC22775	1.15	7.71e5	5.81e5	inactive
ND-MWFE (GeneID 5740593)	DRSC06364	-0.714	6.66e5	6.64e5	inactive
VhaM9.7-b (GeneID 40389)	DRSC11841	-0.5	8.36e5	8.25e5	inactive
rk (GeneID 34819)	DRSC03602	-0.172	7.73e5	6.44e5	inactive
mew (GeneID 32275)	DRSC18971	1.31	7.65e5	7.12e5	inactive
mew (GeneID 32275)	DRSC20352	-1.85	5.00e5	6.73e5	active
TRAM (GeneID 31042)	DRSC18178	0.579	8.66e5	7.41e5	inactive
TRAM (GeneID 31042)	DRSC18651	1.16	7.78e5	7.16e5	inactive
CG2126 (GeneID 43748)	DRSC15418	1.04	5.82e5	7.93e5	inactive
kek1 (GeneID 34688)	DRSC03551	-0.0932	7.29e5	7.03e5	inactive
kek1 (GeneID 34688)	DRSC36699	-0.885	5.17e5	4.92e5	inactive
kek1 (GeneID 34688)	DRSC36700	-0.731	4.80e5	5.56e5	inactive
CG5078 (GeneID 40276)	DRSC11762	0.269	1.02e6	8.43e5	inactive
kar (GeneID 45883)	DRSC14496	1.05	8.26e5	8.02e5	inactive
kar (GeneID 45883)	DRSC39488	1.19	6.15e5	4.53e5	inactive
CG43066 (GeneID 37129)	DRSC06927	1.8	7.15e5	8.51e5	active
CG43066 (GeneID 37129)	DRSC26570	1	8.33e5	9.02e5	inactive
kek2 (GeneID 34582)	DRSC03552	1.14	8.72e5	8.22e5	inactive
kek2 (GeneID 34582)	DRSC26189	0.332	8.89e5	8.94e5	inactive
ppk24 (GeneID 43702)	DRSC15093	-1.13	5.13e5	7.48e5	inactive
ppk24 (GeneID 43702)	DRSC39805	-0.197	4.25e5	5.08e5	inactive
Gr10a (GeneID 117501)	DRSC22792	0.997	6.05e5	7.24e5	inactive
Gr10a (GeneID 117501)	DRSC26071	1.44	9.92e5	1.07e6	inactive
CG8630 (GeneID 41629)	DRSC16441	1.36	3.69e5	8.86e5	inactive
CG8630 (GeneID 41629)	DRSC24081	-0.829	7.77e5	7.17e5	inactive
Or42b (GeneID 35516)	DRSC04913	0.845	6.06e5	7.86e5	inactive
Or42b (GeneID 35516)	DRSC27273	0.218	7.70e5	8.57e5	inactive
mrva (GeneID 38808)	DRSC21842	1.02	7.98e5	5.33e5	inactive
mrva (GeneID 38808)	DRSC25508	-0.829	6.61e5	8.35e5	inactive
CG7881 (GeneID 35521)	DRSC04898	-0.472	5.89e5	5.64e5	inactive
CG7881 (GeneID 35521)	DRSC39816	1.16	5.68e5	5.52e5	inactive
CG32986 (GeneID 34208)	DRSC02509	-0.396	7.21e5	6.48e5	inactive
CG32986 (GeneID 34208)	DRSC39699	-0.783	4.25e5	3.98e5	inactive
Or9a (GeneID 31975)	DRSC18692	-1.29	5.87e5	6.46e5	inactive
Or9a (GeneID 31975)	DRSC28277	-0.356	8.34e5	7.31e5	inactive
Glut1 (GeneID 38109)	DRSC07927	-0.481	6.45e5	7.39e5	inactive
Glut1 (GeneID 38109)	DRSC08662	0.149	6.82e5	8.14e5	inactive
bves (GeneID 33083)	DRSC20520	-0.12	7.11e5	7.49e5	inactive
bves (GeneID 33083)	DRSC20555	-0.491	6.69e5	7.11e5	inactive
CG34433 (GeneID 5740702)	DRSC15077	-1.1	5.66e5	7.62e5	inactive

A stretch from the list above:
gene	amplicon	ATP z-score, duplicate mean	ATP luminescence, replicate 1 (RLU)	ATP luminescence, replicate 2 (RLU)	activity call
ppk24 (GeneID 43702)	DRSC15093	-1.13	5.13e5	7.48e5	inactive
ppk24 (GeneID 43702)	DRSC39805	-0.197	4.25e5	5.08e5	inactive
Gr10a (GeneID 117501)	DRSC22792	0.997	6.05e5	7.24e5	inactive
Gr10a (GeneID 117501)	DRSC26071	1.44	9.92e5	1.07e6	inactive
